Source: patent US20250186600A1, “EXCIPIENT COMPOUNDS FOR PROTEIN FORMULATIONS” (Comera Life Sciences, Inc., priority 2020, published 2025)

Legend:
ustekinumab [1] = assay: Protein-A spin plate elution with excipients, two elution washes (Example 27); conditions: for Integrated peak area (mAU*min): Table 23, Ustekinumab recovery from Protein-A resin, citrate pH 2.6 elution buffer with about 100 mM excipient (Table 21); for Peak area normalized to salt control (%) / Peak area normalized to salt-free control (%): Table 23, ustekinumab
omalizumab [2] = assay: as above; conditions: for Integrated peak area (mAU*min): Table 24, Omalizumab recovery from Protein-A resin, citrate pH 2.6 elution buffer with about 100 mM excipient (Table 21); for Peak area normalized to salt control (%) / Peak area normalized to salt-free control (%): Table 24, omalizumab
tocilizumab [3] = assay: as above; conditions: for Integrated peak area (mAU*min): Table 25, Tocilizumab recovery from Protein-A resin, citrate pH 2.6 elution buffer with about 100 mM excipient (Table 21); for Peak area normalized to salt control (%) / Peak area normalized to salt-free control (%): Table 25, tocilizumab
ipilimumab [4] = assay: Protein-A spin plate elution with excipients, one elution wash (Example 28); conditions: for Peak area (mAU*min): Table 27, Ipilimumab recovery from Protein-A resin, excipient concentrations in Table 26; for Peak area normalized to salt control (%) / Peak area normalized to salt-free control (%): Table 27, ipilimumab
ustekinumab [5] = assay: as above; conditions: for Integrated peak area (mAU*min): Table 28, Ustekinumab recovery from Protein-A resin, excipient concentrations in Table 26; for Peak area normalized to salt control (%) / Peak area normalized to salt-free control (%): Table 28, ustekinumab
omalizumab [6] = assay: as above; conditions: for Integrated peak area (mAU*min): Table 29, Omalizumab recovery from Protein-A resin, excipient concentrations in Table 26; for Peak area normalized to salt control (%) / Peak area normalized to salt-free control (%): Table 29, omalizumab
tocilizumab [7] = assay: as above; conditions: for Integrated peak area (mAU*min): Table 30, Tocilizumab recovery from Protein-A resin, excipient concentrations in Table 26; for Peak area normalized to salt control (%) / Peak area normalized to salt-free control (%): Table 30, tocilizumab
omalizumab [8] = assay: Omalizumab elution from HiTrap Protein-A column at pH 4.0 (Example 29); conditions: Table 31; for E2 peak area (mAU*min): elution fraction E2; for E3 peak area (mAU*min): elution fraction E3; for E4 peak area (mAU*min): elution fraction E4; for E5 peak area (mAU*min): elution fraction E5
ipilimumab [9] = assay: Protein-A spin plate elution with excipients, two elution washes (Example 27)

SMILES | Integrated peak area (mAU*min) (ustekinumab [1]) | Peak area normalized to salt control (%) (ustekinumab [1]) | Peak area normalized to salt-free control (%) (ustekinumab [1]) | Integrated peak area (mAU*min) (omalizumab [2]) | Peak area normalized to salt control (%) (omalizumab [2]) | Peak area normalized to salt-free control (%) (omalizumab [2]) | Integrated peak area (mAU*min) (tocilizumab [3]) | Peak area normalized to salt control (%) (tocilizumab [3]) | Peak area normalized to salt-free control (%) (tocilizumab [3]) | Peak area (mAU*min) (ipilimumab [4]) | Peak area normalized to salt control (%) (ipilimumab [4]) | Peak area normalized to salt-free control (%) (ipilimumab [4]) | Integrated peak area (mAU*min) (ustekinumab [5]) | Peak area normalized to salt control (%) (ustekinumab [5]) | Peak area normalized to salt-free control (%) (ustekinumab [5]) | Integrated peak area (mAU*min) (omalizumab [6]) | Peak area normalized to salt control (%) (omalizumab [6]) | Peak area normalized to salt-free control (%) (omalizumab [6]) | Integrated peak area (mAU*min) (tocilizumab [7]) | Peak area normalized to salt control (%) (tocilizumab [7]) | further results
Cn1c(=O)c2c(ncn2C)n(C)c1=O [Caffeine, reference compound] | 2301 mAU*min | 75.2% | 86.6% | 4040 mAU*min | 117.5% | 105.5% | 3120 mAU*min | 100.3% | 111.2% | 6051 mAU*min | 110.3% | 125.0% | 5084 mAU*min | 120.0% | 111.2% | 5807 mAU*min | 127.0% | 138.5% | 5656 mAU*min | 118.2% | Peak area normalized to salt-free control (%) (tocilizumab [7]): 121.2%; E2 peak area (mAU*min) (omalizumab [8]): 21965 mAU*min; E3 peak area (mAU*min) (omalizumab [8]): 8069 mAU*min; E4 peak area (mAU*min) (omalizumab [8]): 3301 mAU*min; E5 peak area (mAU*min) (omalizumab [8]): 1911 mAU*min
NC(=O)c1cccnc1 [Niacinamide] | 3204 mAU*min | 100.8% | 116.1% | 4812 mAU*min | 139.9% | 125.6% | 2550 mAU*min | 82.0% | 90.9% | 6300 mAU*min | 114.8% | 130.1% | 5848 mAU*min | 138.0% | 127.9% | 5748 mAU*min | 125.7% | 137.0% | 5225 mAU*min | 109.2% | Peak area (mAU*min) (ipilimumab [9]; Table 22, Ipilimumab recovery from Protein-A resin, 20 mM citrate pH 2.6 elution buffer with about 100 mM excipient (Table 21), SEC, 280 nm): 4295 mAU*min; Peak area normalized to salt control (%) (ipilimumab [9]; Table 22, ipilimumab): 105.3%; Peak area normalized to salt-free control (%) (ipilimumab [9]; Table 22, ipilimumab): 98.2%; Peak area normalized to salt-free control (%) (tocilizumab [7]): 111.9%; E2 peak area (mAU*min) (omalizumab [8]): 14492 mAU*min; E3 peak area (mAU*min) (omalizumab [8]): 5307 mAU*min; E4 peak area (mAU*min) (omalizumab [8]): 2914 mAU*min; E5 peak area (mAU*min) (omalizumab [8]): 2014 mAU*min; Total peak area (mAU*min) (omalizumab [8]; sum of fractions E1-E5): 24955 mAU*min
